These are yes or no findings as the source states them, for the method shown. Some results given as binding are weak or reduced against the parent protein; the word gives no strength. For some of these results: Tags and fused reporters may be left off the sequences shown.
Assays:
Experiment in all cases: SPR; Biacore 3000, 25 °C; FGFR-Fc amine-coupled at high density (about 9000 RU) on CM5; FHF1 3 uM injected at 30 ul/min; PBS, 0.05% Tween 20, 0.02% NaN3, pH 7.4; both purified
[1] = target: T1, extracellular region of FGFR4 fused to the Fc fragment (UniProt P22455)
T1 sequence: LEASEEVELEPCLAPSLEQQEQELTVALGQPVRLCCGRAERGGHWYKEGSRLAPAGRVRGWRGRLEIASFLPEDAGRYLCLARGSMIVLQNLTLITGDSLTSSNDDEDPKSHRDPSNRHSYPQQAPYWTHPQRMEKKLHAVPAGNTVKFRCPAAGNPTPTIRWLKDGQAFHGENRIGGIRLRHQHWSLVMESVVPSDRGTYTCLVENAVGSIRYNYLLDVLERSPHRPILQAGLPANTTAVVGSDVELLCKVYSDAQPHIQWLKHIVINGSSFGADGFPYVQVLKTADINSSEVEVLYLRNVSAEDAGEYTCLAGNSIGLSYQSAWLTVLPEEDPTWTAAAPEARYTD

Chains of the proteins cited; added tags and fusions are not shown. Residues count along the entry.
UniProt P11362, residues 22-376: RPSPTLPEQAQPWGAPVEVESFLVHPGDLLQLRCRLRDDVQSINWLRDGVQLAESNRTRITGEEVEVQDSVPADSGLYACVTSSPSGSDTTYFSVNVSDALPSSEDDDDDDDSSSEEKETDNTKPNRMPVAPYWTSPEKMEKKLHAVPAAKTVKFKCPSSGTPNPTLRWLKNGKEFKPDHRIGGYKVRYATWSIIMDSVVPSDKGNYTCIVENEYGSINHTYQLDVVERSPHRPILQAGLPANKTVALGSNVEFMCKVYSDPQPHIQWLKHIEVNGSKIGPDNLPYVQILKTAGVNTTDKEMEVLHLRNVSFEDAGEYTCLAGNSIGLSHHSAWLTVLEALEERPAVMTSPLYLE
UniProt P22607, residues 23-375: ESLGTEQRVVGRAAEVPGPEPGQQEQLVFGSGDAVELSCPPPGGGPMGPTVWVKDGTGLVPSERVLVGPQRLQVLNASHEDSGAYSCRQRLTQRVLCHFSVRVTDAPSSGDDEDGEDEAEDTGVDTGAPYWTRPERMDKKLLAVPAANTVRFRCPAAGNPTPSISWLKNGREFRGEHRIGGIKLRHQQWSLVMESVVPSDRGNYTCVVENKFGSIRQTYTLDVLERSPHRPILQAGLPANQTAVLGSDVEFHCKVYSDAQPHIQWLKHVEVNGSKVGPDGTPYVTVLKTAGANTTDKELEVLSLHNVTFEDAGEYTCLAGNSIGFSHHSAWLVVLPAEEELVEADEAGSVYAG
UniProt P21802, residues 22-377: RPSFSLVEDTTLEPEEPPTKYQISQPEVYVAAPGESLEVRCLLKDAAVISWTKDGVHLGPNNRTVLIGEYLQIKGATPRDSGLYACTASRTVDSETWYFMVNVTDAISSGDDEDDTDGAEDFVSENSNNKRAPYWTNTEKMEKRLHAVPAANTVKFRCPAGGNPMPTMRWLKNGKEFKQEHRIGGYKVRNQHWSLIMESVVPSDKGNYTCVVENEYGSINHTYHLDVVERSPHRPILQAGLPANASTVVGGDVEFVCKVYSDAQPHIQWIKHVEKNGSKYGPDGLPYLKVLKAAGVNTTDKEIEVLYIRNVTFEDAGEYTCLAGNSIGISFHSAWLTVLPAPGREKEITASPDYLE

[2] = target: extracellular region of FGFR1 fused to the Fc fragment (UniProt P11362)
[3] = target: extracellular region of FGFR3 fused to the Fc fragment (UniProt P22607)
[4] = target: extracellular region of FGFR2 fused to the Fc fragment (UniProt P21802)

Measured: binding

B1: fibroblast growth factor homologous factor 1, short isoform (FHF1b) (ligand, UniProt P61328-2 1-181)
chain: MESKEPQLKGIVTRLFSQQGYFLQMHPDGTIDGTKDENSDYTLFNLIPVGLRVVAIQGVKASLYVAMNGEGYLYSSDVFTPECKFKESVFENYYVIYSSTLYRQQESGRAWFLGLNKEGQIMKGNRVKKTKPSSHFVPKPIEVCMYREPSLHEIGEKQGRSRKSSGTPTMNGGKVVNQDST
binds: all assays above
